These results are taken from patent publication US20110015128A1.

Protein sequences, listed by entry. Tags and fused reporters are not part of them. Lines headed by an entry give the natural chain unless they say otherwise; changes in a name come on top.
UniProt P00742: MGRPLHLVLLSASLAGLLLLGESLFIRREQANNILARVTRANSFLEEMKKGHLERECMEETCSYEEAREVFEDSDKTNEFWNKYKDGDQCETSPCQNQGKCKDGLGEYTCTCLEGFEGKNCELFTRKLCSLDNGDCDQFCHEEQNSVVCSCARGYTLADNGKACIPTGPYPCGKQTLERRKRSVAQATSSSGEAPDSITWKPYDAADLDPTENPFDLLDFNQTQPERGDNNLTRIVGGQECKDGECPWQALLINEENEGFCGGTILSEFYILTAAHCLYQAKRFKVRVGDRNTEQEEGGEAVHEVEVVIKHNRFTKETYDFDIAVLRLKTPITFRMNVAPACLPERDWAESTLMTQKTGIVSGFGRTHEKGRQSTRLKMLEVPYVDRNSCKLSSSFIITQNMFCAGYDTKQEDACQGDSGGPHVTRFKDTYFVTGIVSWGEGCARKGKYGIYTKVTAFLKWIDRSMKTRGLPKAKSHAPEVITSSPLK

The target in the assay is r-Antidote (recombinant antidote; human factor Xa triple mutant after removal of the RKRRKR linker) (human) (UniProt P00742). Nature of the assay: affinity chromatography on immobilised soybean trypsin inhibitor.

No constants are given. Whether binding was seen depends on the method and setting. Some results given as binding are weak or reduced against the parent protein; the word gives no strength.

B1: soybean trypsin inhibitor-agarose (STI-Agarose, Sigma Catalog #T0637) (protein, UniProt P01070 25-205, looked up)
chain: DFVLDNEGNPLENGGTYYILSDITAFGGIRAAPTGNERCPLTVVQSRNELDKGIGTIISSPYRIRFIAEGHPLSLKFDSFAVIMLCVGIPTEWSVVEDLPEGPAVKIGENKDAMDGWFRLERVSDDEFNNYKLVFCPQQAEDDKCGDIGISIDHDDGTRRLVVSKNKPLVVQFQKLDKESL
modifications: coupled to agarose
In the case of B1, the binding entry is on record as “binds”.
